Laboratory results taken from patent publication US11124788B2 (NANYANG TECHNOLOGICAL UNIVERSITY, priority 2014, dated 2021).

Experiment: peptide synthesis
Conditions: cyclisation step
[1] = head-to-tail ring, sequence written open

Substance: GLPVCGETCVGGTCNTPGCTCSWPVCTRNHV
- cyclisation yield [1]: >95%

Substance: GLPPPIFNHV
- cyclisation yield [1]: 50%

Substance: GLPVCGETCVGGTCNTPGCTCSWPVCTRAHV
- cyclisation yield [1]: <1%

Substance: GRCTKSIPPICFPNHV
- cyclisation yield [1]: >95%

Substance: GLPVCGETCVGGTCNTPGCTCSWPVCTRNHVI
- cyclisation yield [1]: >95%

Substance: GLPVCGETCVGGTCNTPGCTCSWPVCTRNHVIA
- cyclisation yield [1]: >95%

Substance: GADSHAKRHHGYKRKFHEKHHSHRGYRSNYLYDNHV
- cyclisation yield [1]: 90%

Substance: GLPDSHEKRHHGYRRKFHEKHHSHREFPFYGDYGSNYLYDNHV
- cyclisation yield [1]: 90%

Substance: GLPVCGETCVGGTCNTPGCTCSWPVCTREHV
- cyclisation yield [1]: <1%

Substance: EINSTEINHV
- cyclisation yield [1]: 20%

Substance: GRCTKSIPPICFPDHV
- cyclisation yield [1]: <10%

Substance: GGLPVCGETCVGGTCNTPGCTCSWPVCTRDHV
- cyclisation yield [1]: <10%

Substance: GLPVCGETCVGGTCNTPGCTCSWPVCTRN*
- cyclisation yield: <10%

Substance: HLPPPIFNHV
- cyclisation yield [1]: 50%

Substance: GLDSHAKRHHGYKRKFHEKHHSHRGYRSNYLYDNHV
- cyclisation yield [1]: 90%

Substance: SADSHEKRHHGYRRKFHEKHHSHREFPFYGDYGSNYLYDNHV
- cyclisation yield [1]: 90%

Substance: SLPPPIFNHV
- cyclisation yield [1]: 50%

Substance: GLPVCGETCVGGTCNTPGCTCSWPVCTRQHV
- cyclisation yield [1]: <1%

Substance: GLPVCGETCVGGTCNTPGCTCSWPVCTRNH
- cyclisation yield [1]: <5%

Substance: RVTRPVNHV
- cyclisation yield [1]: 20%

End groups of sequences in plain letters are not given here.
